Measured values reported in publication PMC12274589.
These are yes or no findings as the source states them, for the method shown. Binding seen in cells or lysates may run through a third protein. Some binding calls cover weakened binding; strength is not graded here. For some assays here: Where a sequence is shown, tags or fusion partners need not be part of it.

Chains of the proteins cited; added tags and fusions are not shown.
UniProt O00425: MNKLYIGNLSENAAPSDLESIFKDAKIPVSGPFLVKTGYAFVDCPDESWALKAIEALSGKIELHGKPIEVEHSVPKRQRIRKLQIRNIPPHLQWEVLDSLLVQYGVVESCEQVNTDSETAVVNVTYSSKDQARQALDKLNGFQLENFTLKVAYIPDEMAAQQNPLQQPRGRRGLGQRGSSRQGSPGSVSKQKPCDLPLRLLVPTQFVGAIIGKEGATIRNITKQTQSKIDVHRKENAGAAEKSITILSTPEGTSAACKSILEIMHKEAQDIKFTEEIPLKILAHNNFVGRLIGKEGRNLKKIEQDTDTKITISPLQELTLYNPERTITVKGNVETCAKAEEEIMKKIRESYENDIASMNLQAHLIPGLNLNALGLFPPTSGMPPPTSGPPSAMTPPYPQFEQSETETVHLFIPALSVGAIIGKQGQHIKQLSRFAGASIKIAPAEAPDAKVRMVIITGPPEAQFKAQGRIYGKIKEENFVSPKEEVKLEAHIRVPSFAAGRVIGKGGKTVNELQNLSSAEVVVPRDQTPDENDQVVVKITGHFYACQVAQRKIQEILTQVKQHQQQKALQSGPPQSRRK

What was measured:
[1] = target: T1, phosphoglycerate dehydrogenase (PHGDH), endogenous (human (endogenous in PLC/PRF/5 and Huh7)) (UniProt O43175); assay: co-IP; endogenous immunoprecipitation in PLC/PRF/5 and Huh7 cells; NP-40 lysis buffer, lysate with the specified antibody overnight at 4 °C, then Protein A/G magnetic beads 4 h; washed with PBST; Western blot
T1 sequence: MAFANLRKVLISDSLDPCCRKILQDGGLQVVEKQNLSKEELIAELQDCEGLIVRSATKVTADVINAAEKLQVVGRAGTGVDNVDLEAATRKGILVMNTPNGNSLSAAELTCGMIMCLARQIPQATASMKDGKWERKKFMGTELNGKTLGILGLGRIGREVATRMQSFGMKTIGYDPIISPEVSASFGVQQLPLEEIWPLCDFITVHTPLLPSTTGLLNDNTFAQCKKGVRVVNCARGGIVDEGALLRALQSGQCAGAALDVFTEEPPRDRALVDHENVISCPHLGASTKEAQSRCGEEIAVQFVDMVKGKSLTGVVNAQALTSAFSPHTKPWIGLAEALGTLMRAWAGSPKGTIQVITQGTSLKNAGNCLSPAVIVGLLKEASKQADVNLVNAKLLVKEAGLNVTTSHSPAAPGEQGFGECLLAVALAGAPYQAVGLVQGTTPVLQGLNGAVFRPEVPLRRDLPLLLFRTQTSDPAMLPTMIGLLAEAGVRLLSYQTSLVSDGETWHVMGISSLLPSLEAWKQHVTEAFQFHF

PHGDH-Flag = target: T2, PHGDH-Flag (UniProt O43175); assay: co-IP; exogenous immunoprecipitation of co-transfected tagged constructs in HEK293 (and MHCC-97H) cells; NP-40 lysis buffer, anti-HA / anti-Flag / anti-Myc antibody overnight at 4 °C; Western blot
T2 sequence: T1 sequence

Row | binding [1] | binding (PHGDH-Flag) | Substance
1 | binds |  | insulin-like growth factor 2 mRNA-binding protein 3 (IGF2BP3), endogenous (from UniProt O00425 1-579)
2 |  | binds | IGF2BP3-Myc (from UniProt O00425 1-579)
